Experimental data as given in publication PMC8672621.
These are yes or no findings as the source states them, for the method shown. In cells and extracts the contact can be indirect. Some entries that bind do so weakly or less than the wild type. Tags and fused reporters may be left off the sequences shown.

The chains behind the UniProt entries cited, without tags or fusion partners. Residues count along the entry.
UniProt Q01974, residues 34-943: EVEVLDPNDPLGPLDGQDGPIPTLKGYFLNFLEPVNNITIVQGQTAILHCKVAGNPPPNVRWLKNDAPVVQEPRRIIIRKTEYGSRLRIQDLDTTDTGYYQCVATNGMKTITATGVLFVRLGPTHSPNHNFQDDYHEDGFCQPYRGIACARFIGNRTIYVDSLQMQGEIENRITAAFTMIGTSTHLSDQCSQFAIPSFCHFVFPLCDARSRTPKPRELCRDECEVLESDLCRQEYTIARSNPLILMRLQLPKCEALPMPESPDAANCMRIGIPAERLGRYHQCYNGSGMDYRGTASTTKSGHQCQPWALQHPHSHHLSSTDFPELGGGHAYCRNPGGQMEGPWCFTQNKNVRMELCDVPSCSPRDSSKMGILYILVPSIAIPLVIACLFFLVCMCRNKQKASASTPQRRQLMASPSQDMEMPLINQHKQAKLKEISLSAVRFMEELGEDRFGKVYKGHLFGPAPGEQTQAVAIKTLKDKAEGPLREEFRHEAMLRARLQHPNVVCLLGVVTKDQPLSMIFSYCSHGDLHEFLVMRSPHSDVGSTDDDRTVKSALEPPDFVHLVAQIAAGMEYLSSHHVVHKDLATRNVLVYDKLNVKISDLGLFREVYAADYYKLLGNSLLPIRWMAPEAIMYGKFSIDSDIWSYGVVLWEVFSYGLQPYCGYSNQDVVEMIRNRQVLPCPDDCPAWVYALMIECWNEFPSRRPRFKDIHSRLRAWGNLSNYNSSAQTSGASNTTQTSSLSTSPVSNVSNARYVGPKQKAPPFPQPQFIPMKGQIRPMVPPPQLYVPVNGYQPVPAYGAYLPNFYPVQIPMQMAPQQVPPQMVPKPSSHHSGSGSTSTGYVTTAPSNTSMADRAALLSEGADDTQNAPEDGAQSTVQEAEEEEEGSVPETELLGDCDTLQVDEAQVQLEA

Molecular target: T1, V5-tagged active WNT11 (human) (UniProt O96014)
T1 sequence: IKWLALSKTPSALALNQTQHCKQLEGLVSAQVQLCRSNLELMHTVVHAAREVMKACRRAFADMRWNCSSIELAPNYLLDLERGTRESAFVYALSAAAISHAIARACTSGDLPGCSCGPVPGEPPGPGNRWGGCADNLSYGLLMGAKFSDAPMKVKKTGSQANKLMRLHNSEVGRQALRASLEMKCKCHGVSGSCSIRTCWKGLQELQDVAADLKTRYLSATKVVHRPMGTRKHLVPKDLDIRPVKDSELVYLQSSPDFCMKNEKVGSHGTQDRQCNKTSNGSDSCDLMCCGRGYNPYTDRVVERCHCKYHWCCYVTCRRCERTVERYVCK
Test: co-IP; MCF-7 cells expressing ROR2 constructs transfected with V5-WNT11; 24 h later proteins crosslinked 30 min with 1 mM DSS in PBS + 1 mM MgCl2; lysis in 50 mM Tris/HCl pH 8.0, 150 mM NaCl, 1% NP-40; 500 ug protein with 1 ug V5 antibody or normal rabbit IgG 16 h at 4 °C, protein A/G agarose; ROR2 detected by western blot

“human ROR2, full length (pROR2-FL) (from UniProt Q01974 34-943) (receptor)” was tested, and the binding was “binds”.
